The experiment addresses Numb (mouse (endogenous in C2C12)). In words: co-IP; IP of endogenous Numb with anti-Numb antibody (control Ig) from lysates of three independent samples of C2C12 myotubes; Western blot with anti-Septin 7 and anti-Numb.

These are yes or no findings as the source states them, for the method shown. In cells and extracts the contact can be indirect. Binding calls can cover weak binding; strength is not graded here.

B1: Septin 7 (protein, UniProt O55131 1-436)
chain: MSVSARSAAAEERSVNCGTMAQPKNLEGYVGFANLPNQVYRKSVKRGFEFTLMVVGESGLGKSTLINSLFLTDLYSPEYPGPSHRIKKTVQVEQSKVLIKEGGVQLLLTIVDTPGFGDAVDNSNCWQPVIDYIDSKFEDYLNAESRVNRRQMPDNRVQCCLYFIAPSGHGLKPLDIEFMKRLHEKVNIIPLIAKADTLTPEECQQFKKQIMKEIQEHKIKIYEFPETDDEEENKLVKKIKDRLPLAVVGSNTIIEVNGKRVRGRQYPWGVAEVENGEHCDFTILRNMLIRTHMQDLKDVTNNVHYENYRSRKLAAVTYNGVDNNKNKGQLTKSPLAQMEEERREHVAKMKKMEMEMEQVFEMKVKEKVQKLKDSEAELQRRHEQMKKNLEAQHKELEEKRRQFEEEKANWEAQQRILEQQNSSRTLEKNKKKGKIF
As for B1, the binding entry is reported as “binds”.

The values above are taken from publication PMC11065422.
